Some entries share one result that the patent states for a list of compounds. Some compounds share one range, which may span the group rather than tell each member.
molecular target: CCR5 receptor (Homo sapiens, UniProt P51681); assay: Calcium flux aequorin-based assay (agonist response); format: cell-based; set-up: expressed in transfected cells; host or cells: Chinese hamster ovary cells coexpressing apoaequorin and Gα16; settings: range over the group; printed in mixed units, nM to μM; read-out: EC50 (aequorin assay), range stated in text for the listed compounds
Description: The aequorin assay uses the responsiveness of aequorin to intracellular calcium release induced by the activation of G Protein Coupled Receptors (Stables et al., 1997, Anal. Biochem. 252:115-126; Detheux et al., 2000, J. Exp. Med., 192 1501-1508). Briefly, Chinese hamster ovary cells expressing the CCR5 receptor are transfected to coexpress apoaequorin and Gα16. Cells are incubated with 5 μM Coelenterazine H (Promega) overnight at room temperature, and resuspended at a concentration of 0.1×10^6 cells/ml. Cells are then mixed with test agonist compounds and light emission by the aequorin is recorded with a luminometer (PDSS 6000-Hamamatsu) for 30 sec. Results are expressed as Relative Light Units (RLU). Controls include cells not expressing CCR5 in order to exclude possible non-specific effects of the test compound.
An agonist response is defined as an increase of light emission by aequorin corresponding to 10% or more of the light emitted by a reference sample of cells expressing CCR5 and treated with a the reference agonist ligand MIP-1β. The results of the tested compounds are reported as the concentration of compound required to reach 50% (EC50) of the maximum level of light emission induced by these compounds.

Sequences of proteins named here, by UniProt entry; tags and fusion partners are left off.
UniProt P51681, whole entry: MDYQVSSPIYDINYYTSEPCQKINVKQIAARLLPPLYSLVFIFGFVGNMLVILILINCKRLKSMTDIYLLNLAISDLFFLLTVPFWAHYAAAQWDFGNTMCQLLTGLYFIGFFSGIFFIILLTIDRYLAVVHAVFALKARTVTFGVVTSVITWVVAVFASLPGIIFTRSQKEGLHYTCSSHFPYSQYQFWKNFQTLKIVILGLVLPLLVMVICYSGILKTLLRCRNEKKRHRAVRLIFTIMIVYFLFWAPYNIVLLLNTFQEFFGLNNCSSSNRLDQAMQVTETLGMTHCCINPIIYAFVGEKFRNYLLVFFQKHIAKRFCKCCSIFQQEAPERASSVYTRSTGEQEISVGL

Question: With `O=C(CC1CCN(CCN(c2ccccc2)c2ccccc2)CC1)NC1CCCCC1` [Compound 17] as the compound, how does the EC50 read?
Answer: Its EC50 is 425 to 4400 nM.

Question: With `CCCCc1ccc(NC(=O)CC2CCN(CCN(c3ccccc3)c3ccccc3)CC2)cc1` [Compound 27] as the compound, how does the EC50 read?
Answer: The EC50 was 425 to 4400 nM.

Question: Which EC50 does the source give for `Cc1ccc(NC(=O)CC2CCN(CCN(c3ccccc3)c3ccccc3)CC2)cc1` [Compound 8] here?
Answer: The EC50 was 425 to 4400 nM.

Question: For `O=C(CC1CCN(CCN(c2ccccc2)c2ccccc2)CC1)Nc1ccc(Cl)cc1` [Compound 6], which EC50 is on record?
Answer: The EC50 was 425 to 4400 nM.

Question: How did the EC50 turn out when `COc1ccc(CNC(=O)CC2CCN(CCN(c3ccccc3)c3ccccc3)CC2)cc1` [Compound 16] was run?
Answer: The EC50 was 425 to 4400 nM.

Question: Which EC50 does the source give for `O=C(CC1CCN(CCN(c2ccccc2)c2ccccc2)CC1)Nc1ccc(F)cc1` [Compound 4] here?
Answer: The EC50 was 425 to 4400 nM.
